Values from PubChem BioAssay AID686937 (Drosophila RNAi Screening Center, 2013).

- Assay: 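Knock-downs that reduce output of a secreted reporter enzyme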 (primary screen)
- Cells: Drosophila S2 cells expressing secreted horseradish peroxidase
- Reagents: long dsRNA against Drosophila genes
- Time to read-out: about 5.5 days (5 days dsRNA, then 12 h reporter induction)
- Conditions: reporter expression induced after 5 days of dsRNA, read 12 h later; inducer not stated
- Measured: 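Chemiluminescent measurement of peroxidase in the medium 12 h after reporter induction, following 5 days of dsRNA, given as a z-score per plate; higher means more secretion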
- Reading the numbers: z-score: higher = more reporter secreted into medium
In all, the deposit lists about 23,000 reagents; this is an unselected part of those that have a named target and a result. 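Reduced-secretion tags in replicate 1 do not always agree with the z-scores; no criterion for assigning the tags was given.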 The numbers tell different reagents against one gene apart. Not all columns of the deposit are shown. Reagent sequences are not shown. The record does not give: the amount of reagent.

CG14096 (GeneID 40113) → z-score, replicate 1 = 0.34
CG13313 (GeneID 39022) → z-score, replicate 1 = 0.41
CG15765 (GeneID 31513) → z-score, replicate 1 = -1.13
Miro (GeneID 42845) → z-score, replicate 1 = 0.54
CG33521 (GeneID 3346141) #1 → z-score, replicate 1 = 0.69
CG33521 (GeneID 3346141) #2 → z-score, replicate 1 = 0.42
CG33521 (GeneID 3346141) #3 → z-score, replicate 1 = -0.73
Synd (GeneID 42467) → z-score, replicate 1 = 0.34
CG15096 (GeneID 37170) → z-score, replicate 1 = 0.02
CG30099 (GeneID 36818) → z-score, replicate 1 = 0.23
kl-5 (retired record) (GeneID 3355175) #1 → z-score, replicate 1 = 0.36
kl-5 (retired record) (GeneID 3355175) #2 → z-score, replicate 1 = 0.25
kl-5 (retired record) (GeneID 3355175) #3 → z-score, replicate 1 = 0.41
kl-5 (retired record) (GeneID 3355175) #4 → z-score, replicate 1 = 0.45
Traf-like (GeneID 32611) → z-score, replicate 1 = 0.44
sona (GeneID 37762) #1 → z-score, replicate 1 = 0.15
sona (GeneID 37762) #2 → z-score, replicate 1 = -0.42
sona (GeneID 37762) #3 → z-score, replicate 1 = 0.11
CG12194 (GeneID 33685) → z-score, replicate 1 = 0.38
CG9360 (GeneID 32128) → z-score, replicate 1 = 0.24
Ccdc58 (GeneID 40159) → z-score, replicate 1 = 0.15
CG5892 (GeneID 42522) → z-score, replicate 1 = 0.31
CG2875 (GeneID 31326) → z-score, replicate 1 = 0.06
koi (GeneID 35594) #1 → z-score, replicate 1 = 0.26
koi (GeneID 35594) #2 → z-score, replicate 1 = 0.33
CG4480 (GeneID 34864) → z-score, replicate 1 = 0.47
CG1494 (GeneID 33102) → z-score, replicate 1 = 0.64

4 entries from above, arranged by “z-score, replicate 1”, highest first.
kl-5 (retired record) (GeneID 3355175) #1 → z-score, replicate 1 = 0.36
kl-5 (retired record) (GeneID 3355175) #2 → z-score, replicate 1 = 0.25
CG30099 (GeneID 36818) → z-score, replicate 1 = 0.23
CG15096 (GeneID 37170) → z-score, replicate 1 = 0.02
